From article PMC3372510 come the findings set out here.

Amino acid sequences for entries named in this document (tags omitted).
UniProt Q14974: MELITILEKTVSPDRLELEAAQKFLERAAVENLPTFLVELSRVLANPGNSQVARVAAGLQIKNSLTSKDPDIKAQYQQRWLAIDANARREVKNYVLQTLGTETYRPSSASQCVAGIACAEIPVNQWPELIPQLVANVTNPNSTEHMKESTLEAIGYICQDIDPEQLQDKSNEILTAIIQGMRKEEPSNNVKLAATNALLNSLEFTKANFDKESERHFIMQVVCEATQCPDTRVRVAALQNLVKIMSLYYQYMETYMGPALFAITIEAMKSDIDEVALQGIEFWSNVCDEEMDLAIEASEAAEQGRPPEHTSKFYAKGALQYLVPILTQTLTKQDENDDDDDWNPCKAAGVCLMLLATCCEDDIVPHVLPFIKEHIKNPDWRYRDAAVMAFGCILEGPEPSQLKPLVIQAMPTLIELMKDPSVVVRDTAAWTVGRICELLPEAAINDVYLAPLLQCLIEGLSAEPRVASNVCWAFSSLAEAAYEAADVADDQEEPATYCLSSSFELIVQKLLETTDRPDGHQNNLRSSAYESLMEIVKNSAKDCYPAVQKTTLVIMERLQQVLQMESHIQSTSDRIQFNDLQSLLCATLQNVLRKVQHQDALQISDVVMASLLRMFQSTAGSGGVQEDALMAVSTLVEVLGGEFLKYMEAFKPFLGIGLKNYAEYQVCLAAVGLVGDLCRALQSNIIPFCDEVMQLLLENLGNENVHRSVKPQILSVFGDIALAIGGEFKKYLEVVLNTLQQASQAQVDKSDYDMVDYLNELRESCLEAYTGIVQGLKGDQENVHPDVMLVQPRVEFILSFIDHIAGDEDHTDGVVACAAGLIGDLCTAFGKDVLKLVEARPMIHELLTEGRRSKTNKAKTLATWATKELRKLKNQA

The target of assay [1] is T1, GST-ARTD15 (recombinant, full length) (human) (UniProt Q8N5Y8).
T1 sequence: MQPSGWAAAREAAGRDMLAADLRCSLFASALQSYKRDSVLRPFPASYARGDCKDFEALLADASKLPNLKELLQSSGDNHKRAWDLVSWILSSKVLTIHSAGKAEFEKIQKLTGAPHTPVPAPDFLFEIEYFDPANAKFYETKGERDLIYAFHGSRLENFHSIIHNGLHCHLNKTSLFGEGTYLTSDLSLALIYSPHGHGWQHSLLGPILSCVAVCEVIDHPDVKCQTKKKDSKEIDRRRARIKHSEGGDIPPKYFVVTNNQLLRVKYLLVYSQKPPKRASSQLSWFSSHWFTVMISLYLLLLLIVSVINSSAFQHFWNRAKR
The experiment in a line: pull-down; GST-ARTD15 or GST (0.1 µM) incubated over-night at 4°C with increasing amounts of His-Kapß1 in 50 mM Tris-HCl pH 7.4, 100 mM NaCl, 0.1% Triton X-100, 0.1% NP-40, 1 mg/ml BSA; Glutathione Sepharose 4B; anti-His blot; both purified.

For assay [2], the target named is Karyopherin-ß1/importin-ß1 (endogenous) (human (endogenous in HEK293 and HeLa)) (UniProt Q14974). Description: co-IP; total lysates (2 mg) of HeLa cells over-expressing FLAG-ARTD15 immunoprecipitated with anti-Kapß1 antibody or control IgG, over-night at 4°C, protein-A sepharose; IP buffer with 0.2% Triton X-100; immunoblot.

These are yes or no findings as the source states them, for the method shown. For some assays here: In cells and extracts the contact can be indirect. Some binding calls cover weakened binding; strength is not graded here. Where a sequence is shown, tags or fusion partners need not be part of it.

As to “His-Kapß1 (recombinant, full length) (from UniProt Q14974 1-876)”, in assay [1], the binding result is on record as “binds”.

B1: FLAG-ARTD15 (human PARP16/ARTD15, N-terminally FLAG-tagged, full length) (enzyme, UniProt Q8N5Y8 1-322)
chain: T1 sequence
B1: the binding entry in assay [2] is “binds”.
